Experimental data reported in article doi:10.1101/2025.09.25.678687.
Results are given in words; binding and its absence hold for the method and conditions named. Binding seen in cells or lysates may run through a third protein. These calls come from enrichment with a bait or labelling near it, and not all partners need be listed. Values belong to the binder of their own block, whether it stands above or below them.

Chains of the proteins cited; added tags and fusions are not shown.
UniProt P15559: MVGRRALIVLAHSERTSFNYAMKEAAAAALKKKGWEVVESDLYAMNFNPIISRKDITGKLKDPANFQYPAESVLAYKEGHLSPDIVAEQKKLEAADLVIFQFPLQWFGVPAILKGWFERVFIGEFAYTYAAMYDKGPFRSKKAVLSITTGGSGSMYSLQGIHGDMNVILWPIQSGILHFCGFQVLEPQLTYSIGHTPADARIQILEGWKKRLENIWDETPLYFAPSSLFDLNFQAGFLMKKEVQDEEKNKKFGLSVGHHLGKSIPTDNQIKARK

Target: Flag-tagged NQO1 (NAD(P)H quinone dehydrogenase 1), expressed in Mia-PaCa2 cells (UniProt P15559)
Assay: affinity purification with mass spectrometry

binding: binds
B1: TIA1, endogenous in Mia-PaCa2 cells (protein, UniProt P31483 1-386)
chain: MEDEMPKTLYVGNLSRDVTEALILQLFSQIGPCKNCKMIMDTAGNDPYCFVEFHEHRHAAAALAAMNGRKIMGKEVKVNWATTPSSQKKDTSSSTVVSTQRSQDHFHVFVGDLSPEITTEDIKAAFAPFGRISDARVVKDMATGKSKGYGFVSFFNKWDAENAIQQMGGQWLGGRQIRTNWATRKPPAPKSTYESNTKQLSYDEVVNQSSPSNCTVYCGGVTSGLTEQLMRQTFSPFGQIMEIRVFPDKGYSFVRFNSHESAAHAIVSVNGTTIEGHVVKCYWGKETLDMINPVQQQNQIGYPQPYGQWGQWYGNAQQIGQYMPNGWQVPAYGMYGQAWNQQGFNQTQSSAPWMGPNYGVQPPQGQNGSMLPNQPSGYRVAGYETQ

binding: binds
B2: G3BP2, endogenous in Mia-PaCa2 cells (protein, UniProt Q9UN86 1-482)
chain: MVMEKPSPLLVGREFVRQYYTLLNKAPEYLHRFYGRNSSYVHGGVDASGKPQEAVYGQNDIHHKVLSLNFSECHTKIRHVDAHATLSDGVVVQVMGLLSNSGQPERKFMQTFVLAPEGSVPNKFYVHNDMFRYEDEVFGDSEPELDEESEDEVEEEQEERQPSPEPVQENANSGYYEAHPVTNGIEEPLEESSHEPEPEPESETKTEELKPQVEEKNLEELEEKSTTPPPAEPVSLPQEPPKAFSWASVTSKNLPPSGTVSSSGIPPHVKAPVSQPRVEAKPEVQSQPPRVREQRPRERPGFPPRGPRPGRGDMEQNDSDNRRIIRYPDSHQLFVGNLPHDIDENELKEFFMSFGNVVELRINTKGVGGKLPNFGFVVFDDSEPVQRILIAKPIMFRGEVRLNVEEKKTRAARERETRGGGDDRRDIRRNDRGPGGPRGIVGGGMMRDRDGRGPPPRGGMAQKLGSGRGTGQMEGRFTGQRR
